Data taken from patent US8980932B2, “Cancer targeting using carbonic anhydrase isoform IX inhibitors” (Stichting Maastricht Radiation Oncology “Maastro-Clinic”, priority 2010, dated 2015).

Tested on: HT-29 xenografts harbouring a knock-down for CA IX
Conditions: single treatment

## CC(=O)Nc1nnc(S(N)(=O)=O)s1 [AZA, Acetazolamide]
  therapeutic effect on CA IX shRNA (KD) tumors: demonstrated also an effect on the KD tumors
